# Literature values as cited in patent US6764831B2, “Methods and compositions for pain management” (priority 1998, dated 2004).
# At least one structure is not confirmed: it was looked up by name or label, or the drawing left a doubt.
# System: ACh level in the extracellular space
# Settings: injection into rats
structure (smiles),measurement,value
CNC(=O)Oc1ccc2c(c1)[C@]1(C)CCN(C)[C@@H]1N2C [physostigmine],ACh level in the extracellular space,elevation
